Protein sequences, listed by entry. Tags and fused reporters are not part of them. Chains listed by the source or under a name are the forms on record and can include a tag or linker.
UniProt P19821, other isoform, or with tags, fused parts or gaps: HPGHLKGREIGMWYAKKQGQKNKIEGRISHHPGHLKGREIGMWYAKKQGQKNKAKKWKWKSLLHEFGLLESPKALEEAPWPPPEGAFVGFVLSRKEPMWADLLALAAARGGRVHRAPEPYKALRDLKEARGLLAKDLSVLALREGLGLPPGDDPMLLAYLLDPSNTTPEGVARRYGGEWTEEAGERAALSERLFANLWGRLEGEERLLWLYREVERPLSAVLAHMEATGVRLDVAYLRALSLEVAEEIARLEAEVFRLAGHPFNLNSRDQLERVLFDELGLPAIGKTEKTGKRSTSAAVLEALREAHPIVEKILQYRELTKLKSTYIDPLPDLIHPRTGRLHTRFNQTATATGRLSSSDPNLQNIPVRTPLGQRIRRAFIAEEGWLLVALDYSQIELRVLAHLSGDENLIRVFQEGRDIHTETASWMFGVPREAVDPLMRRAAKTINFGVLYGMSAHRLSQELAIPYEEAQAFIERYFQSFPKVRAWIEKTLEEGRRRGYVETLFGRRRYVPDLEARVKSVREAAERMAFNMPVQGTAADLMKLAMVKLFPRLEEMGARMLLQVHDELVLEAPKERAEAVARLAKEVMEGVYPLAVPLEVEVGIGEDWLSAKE

According to patent US20230287363, “DNA POLYMERASE, APTAMER, WARM-START DNA POLYMERASE AND PREPARATION METHODS AND APPLICATION THEREOF” (Sun Yat-Sen University, published 2023):

Molecular target: RHAU23-Taq (Homo sapiens / Thermus aquaticus) (UniProt P19821)
Assay: inhibition of the protein
Conditions: almost completely inhibited below 35 C by 200 nM aptamer; almost full recovery above 50 C; 2 mM MgSO4; purified recombinant protein; protein details: His-tag, pCold-I; folded or branched DNA; variant of HG53 (HG53-H8/T10)

AGACCAGAAGTTTTGGTGGGTGGGTGGGATTTTTTTTTTACTGGTCT [HG53-H7]
functional effect of the aptamer: active
